Experimental data: patent publication US20070218064A1
No constants are given. Whether binding was seen depends on the method and setting. Some binding calls cover weakened binding; strength is not graded here.

Sequences of proteins named here, by UniProt entry; tags and fusion partners are left off. A change or cut given only in a name is not applied to a line headed by its entry.
UniProt P29460: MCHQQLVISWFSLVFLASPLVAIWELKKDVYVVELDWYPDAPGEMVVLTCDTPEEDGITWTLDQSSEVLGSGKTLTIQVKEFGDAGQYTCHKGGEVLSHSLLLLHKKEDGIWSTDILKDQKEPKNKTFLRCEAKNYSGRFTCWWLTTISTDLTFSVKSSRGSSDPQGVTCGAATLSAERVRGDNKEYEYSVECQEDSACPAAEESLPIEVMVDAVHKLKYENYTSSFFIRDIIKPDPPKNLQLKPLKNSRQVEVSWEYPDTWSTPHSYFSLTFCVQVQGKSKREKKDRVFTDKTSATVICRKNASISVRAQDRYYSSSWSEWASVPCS

Experiments:
[1] = biological target: recombinant human IL-23 (hrIL-23), produced at Centocor (human) (UniProt P29460); test: ELISA, antigen in solution to immobilized Fab
[2] = biological target: linked rhIL-23 with no His-tag (from R&D Systems) (human) (UniProt P29460); test: ELISA, antigen in solution to immobilized Fab
[3] = biological target: recombinant human IL-23 (hrIL-23), produced at Centocor (human) (UniProt P29460); test: IL-23 binding, hrIL-23 subunit specificity (cytokine capture ELISA)

Row | Binder | binding [1] | binding [2] | binding [3]
1 | Fab MOR04217 (Fab, V domains shown) VH: QVQLVESGGGLVQPGGSLRLSCAASGFTFSSYWITWVRQAPGKGLEWVSYISSSGSSTYYADSVKGRFTISRDNSKNTLYLQMNSLRAEDTAVYYCARGTFWSFGNYFANWGQGTLVTVSS VL: DIVLTQSPATLSLSPGERATLSCRASQSIFYNLAWYQQKPGQAPRLLIYGASNRATGVPARFSGSGSGTDFTLTISSLEPEDFATYYCQQYSSEPVTFGQGTKVEIK | binds | binds | 
2 | mAb MOR04217 (antibody, human IgG1, V domains shown) VH: QVELVESGGGLVQPGGSLRLSCAASGFTFSSYWITWVRQAPGKGLEWVSYISSSGSSTYYADSVKGRFTISRDNSKNTLYLQMNSLRAEDTAVYYCARGTFWSFGNYFANWGQGTLVTVSS VL: DIVLTQSPATLSLSPGERATLSCRASQSIFYNLAWYQQKPGQAPRLLIYGASNRATGVPARFSGSGSGTDFTLTISSLEPEDFATYYCQQYSSEPVTFGQGTKVEIK |  |  | binds
3 | mAb MOR04658 (antibody, human IgG1, V domains shown) VH: QVELVESGGGLVQPGGSLRLSCAASGFTFSSFGMSWVRQAPGKGLEWVSNISSSGSSTYYADSVKGRFTISRDNSKNTLYLQMNSLRAEDTAVYYCARYWGTPYLMQFDNWGQGTLVTVSS VL: DIALTQPASVSGSPGQSITISCTGTSSDVGGYNSVSWYQQHPGKAPKLMIYSVSSRPSGVSNRFSGSKSGNTASLTISGLQAEDEADYYCSSYDTNKPLVVFGGGTKLTVL |  |  | binds
4 | mAb MOR04649 (antibody, human IgG1, V domains shown) VH: QVELVQSGAEVKKPGESLKISCKGSGYSFSNYWIGWVRQMPGKGLEWMGIIDPSNSYTNYSPSFQGQVTISADKSISTAYLQWSSLKASDTAMYYCARWYYKPFDVWGQGTLVTVSS VL: DIVLTQPPSVSGAPGQRVTISCTGSSSNIGSGYDVHWYQQLPGTAPKLLIYGNSKRPSGVPDRFSGSKSGTSASLAITGLQSEDEADYYCSSWTPSSVVFGGGTKLTVL |  |  | binds

Next, values leading:

Row | binding [1] | binding [2] | binding [3] | Binder
5 | binds | binds |  | Fab MOR04658 (Fab, V domains shown) VH: QVQLVESGGGLVQPGGSLRLSCAASGFTFSSFGMSWVRQAPGKGLEWVSNISSSGSSTYYADSVKGRFTISRDNSKNTLYLQMNSLRAEDTAVYYCARYWGTPYLMQFDNWGQGTLVTVSS VL: DIALTQPASVSGSPGQSITISCTGTSSDVGGYNSVSWYQQHPGKAPKLMIYSVSSRPSGVSNRFSGSKSGNTASLTISGLQAEDEADYYCSSYDTNKPLVVFGGGTKLTVL
6 | binds | binds |  | Fab MOR04649 (Fab, V domains shown) VH: QVQLVQSGAEVKKPGESLKISCKGSGYSFSNYWIGWVRQMPGKGLEWMGIIDPSNSYTNYSPSFQGQVTISADKSISTAYLQWSSLKASDTAMYYCARWYYKPFDVWGQGTLVTVSS VL: DIVLTQPPSVSGAPGQRVTISCTGSSSNIGSGYDVHWYQQLPGTAPKLLIYGNSKRPSGVPDRFSGSKSGTSASLAITGLQSEDEADYYCSSWTPSSVVFGGGTKLTVL
7 | binds | binds |  | Fab MOR04205 (Fab, V domains shown) VH: QVQLVQSGAEVKKPGESLKISCKGSGYSFTNYWISWVRQAPGKGLEWMGWIRPGDSDTRYSPSFEGQVTISADKSISTAYLQWSSLKASDTAMYYCARHYYGMDYWGQGTLVTVSS VL: DIVLTQPPSVSGAPGQRVTISCSGSSSNIGSYYVNWYQQLPGTAPKLLIYGNTHRPSGVPDRFSGSKSGTSASLAITGLQSEDEADYYCQTYASLGPGEVFGGGTKLTVL
8 |  |  | binds | mAb MOR04205 (antibody, human IgG1, V domains shown) VH: QVELVQSGAEVKKPGESLKISCKGSGYSFTNYWISWVRQAPGKGLEWMGWIRPGDSDTRYSPSFEGQVTISADKSISTAYLQWSSLKASDTAMYYCARHYYGMDYWGQGTLVTVSS VL: DIVLTQPPSVSGAPGQRVTISCSGSSSNIGSYYVNWYQQLPGTAPKLLIYGNTHRPSGVPDRFSGSKSGTSASLAITGLQSEDEADYYCQTYASLGPGEVFGGGTKLTVL
